PubChem BioAssay AID1439 (NMMLSC, 2008)
The campaign covered roughly 220,000 compounds. About 770 (0.35%) were called active. The inconclusive results got no clear call from the source; some entries with a clear call stand among them for comparison. Rule as the data show it: active = binding response below about 49% or above about 150%; inconclusive = no clear call, values can overlap the other calls; inactive = in between.

Sequences of proteins named here, by UniProt entry; tags and fusion partners are left off.
UniProt P09471, whole entry, looked up: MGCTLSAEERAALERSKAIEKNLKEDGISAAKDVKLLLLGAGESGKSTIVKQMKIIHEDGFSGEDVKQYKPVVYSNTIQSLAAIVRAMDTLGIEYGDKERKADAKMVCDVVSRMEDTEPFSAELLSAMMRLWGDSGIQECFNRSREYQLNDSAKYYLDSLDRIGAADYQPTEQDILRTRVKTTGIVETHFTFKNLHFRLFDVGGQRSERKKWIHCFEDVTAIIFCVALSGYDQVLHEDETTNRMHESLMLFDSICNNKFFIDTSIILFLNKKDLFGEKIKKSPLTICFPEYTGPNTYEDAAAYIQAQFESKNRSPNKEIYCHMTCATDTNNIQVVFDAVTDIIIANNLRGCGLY

Biological target: Guanine nucleotide-binding protein G(o) subunit alpha (Homo sapiens) (UniProt P09471)
Test: RGS7-Galphao binding modulators, primary screen, biochemical, multiplexed bead flow cytometry (AID 1439);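 also: fluorescent Galphao held in activated GDP-AlF4 state binding bead-coupled RGS7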
Conditions: at 10 µM, actives lie on both sides

Compound | binding response (% of control)
CSc1nnc(-c2ccc(C(F)(F)F)cn2)o1 | inconclusive: 73.8%
NS(=O)(=O)c1ccc(NC(=O)/C=C/c2cn(-c3ccccc3)nc2-c2cccc(Cl)c2)cc1 | inconclusive: 86.6%
CC1=NNC(=O)C1CC(=O)N/N=C/c1sccc1C (stereo not drawn) | inconclusive: 89.2%
CC(NC(=S)Nc1ccc([N+](=O)[O-])cc1)c1ccncc1 (stereo not drawn) | inconclusive: 96.2%
N=c1occ(C(=O)c2cc(F)ccc2O)cc1C(=O)NC1CCCCC1 | inactive: 70.2%
O=c1[nH]c(SCCN2CCOCC2)nc(O)c1-c1ccccc1 | inconclusive: 91.2%
CC1=NN(c2ccccc2)C(=O)C1C=Nc1ccc(N(C)C)cc1 (stereo not drawn) | inconclusive: 105%
O=c1[nH][nH]cc1C=Nc1ccc(Oc2ccccc2)cc1 | inconclusive: 98.7%
COc1ccc(NC(C)=O)cc1NC(=O)c1cccc(C(F)(F)F)c1 | inconclusive: 108%
CC(C)C12CN3CC(C(C)C)(CN(C1)C3c1ccccc1)C2O (stereo not drawn) | inactive: 111%
N#Cc1ccc(-c2ccc(OCC(=O)NCCc3ccccc3)cc2)cc1 | inactive: 98.5%
Cc1ccc(-n2cc(CNCCCn3cccn3)c(-c3cccc(C)c3)n2)cc1 | inconclusive: -58.1%
CCN(CC)C(=O)COc1ccc(/C(C)=N/Nc2ncc(Cl)cc2Cl)cc1 | inconclusive: 47.7%
COC(=O)c1c(NC(=O)C(C)(C)C)csc1C | inconclusive: 103%
CNc1nc(SCC(=O)OC)nc(N2CCOCC2)n1 | inactive: 104%
OC1CCN(c2ncnc3c2nnn3Cc2c(F)cccc2Cl)CC1 | active: 152% [activator]
Cc1ccc(C2CC(=O)C(C=NCCN3CCN(CC(=O)Nc4cc(C)cc(C)c4)CC3)=C(O)C2)cc1 (stereo not drawn) | inconclusive: 89.9%
CC(CCCCC(=O)Nc1ccc(C(F)(F)F)cc1)NCCc1cnc[nH]1 (stereo not drawn) | inactive: 96.9%
Cc1ccc(S(=O)(=O)Nc2ccccn2)cc1[N+](=O)[O-] | inconclusive: 82.9%
CCC1=C(OC(=O)N(CC)CC)N2C(=O)OC(=NCC3CC3)[C@]2(Cc2ccccc2)[C@H]2C1=CC[C@H]1C(=O)N(CC(=O)OC)C(=O)[C@H]12 | inconclusive: 103%

Compound | binding response (% of control)
COc1ccc(Br)cc1CNC(=O)CCNC(=O)Cn1ccc2ccccc2c1=O | inconclusive: 122%
COc1ccc(NS(=O)(=O)c2cnc[nH]2)cc1 | inconclusive: 91.1%
CC(C)Cc1nnc(NC(=O)c2cc3c(s2)CCC3)s1 | inconclusive: 51%
O=C(c1cccs1)N1CCCC(c2ccccc2)C1 (stereo not drawn) | inactive: 102%
COc1cc(C2C(C#N)=C(N)Oc3n[nH]c(-c4cccnc4)c32)ccc1OCC(N)=O (stereo not drawn) | inconclusive: 89.6%
C/C(CCC(C)C)=N\NS(=O)(=O)c1ccc(C)c([N+](=O)[O-])c1 | inconclusive: 156%
O=C(CSc1ncnc2c1nnn2Cc1ccc(F)cc1)NC1CCCCC1 | inconclusive: 103%
Cc1ccc2c(c1)N(C(=O)NC1CCCCC1)C(C)(C)CC2C (stereo not drawn) | inactive: 110%
COc1ccc(-c2noc(-c3cccs3)n2)cc1OC | inconclusive: 57.1%
COC(=O)[C@H](CC(C)C)NC(=O)NCCC1=CCCCC1 | inconclusive: 94.4%
Cc1c(N=C2N=C(NC(=O)c3cccs3)c3ccccc32)c(=O)n(-c2ccccc2)n1C | inconclusive: 97.3%
CCCc1cnc(N2CCN(S(C)(=O)=O)CC2)nc1 | inconclusive: 149%
N=c1sccn1CC(=O)Nc1ccc(S(N)(=O)=O)cc1 | inconclusive: 136%
CCCCCc1nnc(NC(=O)CS(=O)(=O)Cc2ccccc2)s1 | inactive: 99.9%
CC(=O)NC(Cc1ccc(C(C)C)cc1)C(=O)NC1CCN(C(=O)c2cccc(C)c2)CC1 (stereo not drawn) | inactive: 98%
Cc1ccc(-c2nc(-c3cccnc3)no2)cc1 | inactive: 146%
CCCOC(=O)c1ccc(Oc2cn[nH]c2-c2ccc(O)cc2O)cc1 | inconclusive: 57.9%
O=C(NC1CC1)c1ccc2c(c1)C1C3CCC(C3)C1C(c1ccccc1)N2 (stereo not drawn) | inactive: 97.6%
CCOC(=O)C1CCN(C(=O)CSc2ccc(Br)cc2)CC1 | inactive: 110%
CCOc1ccc(-n2cc(C(=O)N3CCN(C)CC3)c3cc(OC)c(OC)cc3c2=O)cc1 | inactive: 98.7%

Compound | binding response (% of control)
Cc1cccc(NC(=O)c2nc[nH]c2C(=O)N[C@@H](CC(C)C)C(=O)OCc2ccccc2)c1 | inconclusive: 87.3%
Cc1cccc(CSc2nnc(-c3cnccn3)n2C)c1 | inconclusive: 71.9%
COc1cc2nc(CN3CCN(C(C)=O)CC3)[nH]c(=O)c2cc1OC | inconclusive: 100%
Nc1c2c(nc3ccccc13)CCCC2=O | inconclusive: 99%
O=C(CCCc1ccccc1)NCc1ccc(F)cc1 | inactive: 100%
c1cncc(-c2nc3ccccc3[nH]2)c1 | inconclusive: 111%
CCOc1ccc(NC(=O)c2ccc(NC(=O)c3ccc(CN4CCOCC4)cc3)cc2)cc1 | inconclusive: 88.8%
FC(F)(F)COc1ccc(-c2nnc(SCc3c(Cl)cccc3Cl)o2)cn1 | inconclusive: 104%
CN(Cc1ccccc1)C(=O)CN(c1ccc(F)cc1)S(=O)(=O)c1ccc2c(c1)OCCO2 | inactive: 99.1%
COc1cc2c(cc1OC)CN(C(=O)/C=C/c1cccs1)CC2 | inconclusive: 115%
Cc1cc(N2CCN(c3ccccc3)CC2)n2nnnc2n1 | inactive: 105%
Cc1ccc(-c2ccc(/C=N/NC(N)=S)o2)cc1 | inconclusive: 117%
O=c1ccc(Oc2nc(N3CCOCC3)nc(N3CCOCC3)n2)nn1-c1ccccc1 | inactive: 99.5%
NC(=O)C1CCCNC1 (stereo not drawn) | inconclusive: 66.3%
CCN1C(=O)CC2(C[N+]3(C)CCC2CC3)C1=O (stereo not drawn) | inactive: 96.3%
C=C(C)C(=O)Nc1cccc(C2=NOC3(C2)C[C@@H](C(N)=O)N(C(=O)c2cc([N+](=O)[O-])cc([N+](=O)[O-])c2C)C3)c1 (stereo partly drawn) | inconclusive: 88.6%
COc1ccc2nc(N/C(N)=N/S(C)(=O)=O)nc(C)c2c1 | inconclusive: 116%
CS(=O)(=O)/C(C#N)=C/c1c(-c2ccccc2)nc2n1CCS2 | inconclusive: 84.4%

Some of the entries so far, in markdown:

| Compound | binding response (% of control) |
| --- | --- |
| C=C(C)C(=O)Nc1cccc(C2=NOC3(C2)C[C@@H](C(N)=O)N(C(=O)c2cc([N+](=O)[O-])cc([N+](=O)[O-])c2C)C3)c1 (stereo partly drawn) | inconclusive: 88.6% |
| COc1ccc2nc(N/C(N)=N/S(C)(=O)=O)nc(C)c2c1 | inconclusive: 116% |
| CS(=O)(=O)/C(C#N)=C/c1c(-c2ccccc2)nc2n1CCS2 | inconclusive: 84.4% |
